Experimental data from PubChem BioAssay AID1259354 (Paczesny and Yang Labs, IUPUI and University of Michigan, 2018).
Out of some 78,000 compounds screened, about 1,800 (2.3%) were called active. This list was built around the results that the source calls inconclusive (neither active nor inactive); the mix of calls is not that of the screen. Rule as the data show it: active = inhibition above about 30%; inconclusive = mostly about 10% to 28%; inactive = weaker than that.

Chains of the proteins cited; added tags and fusions are not shown. Lines headed by an entry give the natural chain unless they say otherwise; changes in a name come on top.
UniProt Q01638: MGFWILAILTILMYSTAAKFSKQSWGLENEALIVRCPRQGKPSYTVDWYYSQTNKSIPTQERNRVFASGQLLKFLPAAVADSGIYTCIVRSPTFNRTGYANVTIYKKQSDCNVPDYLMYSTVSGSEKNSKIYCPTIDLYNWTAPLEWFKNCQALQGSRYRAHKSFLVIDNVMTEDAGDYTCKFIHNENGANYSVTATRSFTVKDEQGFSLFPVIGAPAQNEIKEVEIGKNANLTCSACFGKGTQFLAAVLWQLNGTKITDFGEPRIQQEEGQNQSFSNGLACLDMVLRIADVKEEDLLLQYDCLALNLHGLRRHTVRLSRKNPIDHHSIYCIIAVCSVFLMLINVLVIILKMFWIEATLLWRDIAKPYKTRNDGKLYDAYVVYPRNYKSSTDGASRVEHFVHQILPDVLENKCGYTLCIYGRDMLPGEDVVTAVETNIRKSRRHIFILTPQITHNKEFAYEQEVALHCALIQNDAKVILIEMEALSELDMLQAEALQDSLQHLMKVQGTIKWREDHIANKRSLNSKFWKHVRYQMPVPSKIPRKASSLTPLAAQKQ

Target: Interleukin-1 receptor-like 1 (Homo sapiens) (UniProt Q01638)
Assay: blocks human ST2 binding to IL-33, primary screen, biochemical, AlphaLISA (AID 1259354)
Conditions: AlphaLISA ST2-Fc/biotin-IL-33 interaction, 1 h; at 17 µM, hits give high values

Structure (SMILES) | inhibition
Cc1cccn2c(=O)c3cc(C(=O)NC(c4ccccc4)c4ccccc4)n(C)c3nc12 | inconclusive: 11%
CN(C)CCN(CC1CCCN(Cc2ccccc2F)C1)C(=O)c1cccc(N(C)C)c1 (stereo not drawn) | inactive
Cc1oc(-c2cccs2)nc1CN1CCCC(C(=O)NC2CC2)C1 (stereo not drawn) | inactive
CCC1CN(Cc2ccc(CN(C)S(C)(=O)=O)o2)CCN1C(C)C (stereo not drawn) | inconclusive: 13%
CCC1CN(CCNC(=O)c2cccnc2OC)Cc2cc(OC)ccc2O1 (stereo not drawn) | inconclusive: 17%
COC(=O)c1cc2n(n1)CCN(C(=O)c1oc3cc(OC)ccc3c1C)C2 | inconclusive: 11%
COc1ccc(C2=C/C(=C3/c4ccccc4-c4ncccc43)C(=O)O2)c(OC)c1 | active: 31%
Cc1nc2nc(SCC(=O)NCc3ccco3)nn2c(C)c1Cc1ccccc1 | inconclusive: 21%
c1cncc(CN2CC[C@H](c3nnc(-c4ccco4)o3)C2)c1 | inconclusive: 13%
O=C(c1ccccc1F)N1CCCC(N2CCN(Cc3ccc4c(c3)OCO4)CC2)C1 (stereo not drawn) | inconclusive: 16%
OCc1ccc(-c2nccn2CC2OCCc3ccccc32)o1 (stereo not drawn) | inconclusive: 12%
COc1ccc(N2C(=O)C(=O)C(=C(O)c3ccccc3)C2c2ccc(O)c(OC)c2)cc1 (stereo not drawn) | inactive
CC1CC(C)CN(c2nc3c(c(=O)n(C)c(=O)n3C)n2Cc2ccc(F)cc2)C1 (stereo not drawn) | inactive
N#CC1=C(N)C(C#N)(C#N)C(c2ccc(I)cc2)C=C1C1CC1 (stereo not drawn) | inconclusive: 11%
CC(=O)c1c(C)nn(CC(=O)Nc2ccnn2C2CCCCC2)c1C | inactive
COc1ccccc1N1CCN([C@@H]2[C@H](O)[C@H](CO)O[C@@H]2CNC2CCN(C)CC2)CC1 | inactive
COc1cc(NC2OC(=O)c3ccccc32)c(OC)cc1Cl (stereo not drawn) | inactive
COc1ccc(NC(=O)c2cccc(S(=O)(=O)Nc3cccc([N+](=O)[O-])c3)c2)cc1 | inconclusive: 13%
CCOCCCNC(=O)CN1C(=O)/C(=C\c2ccc(Cl)cc2)Sc2ccccc21 | inconclusive: 14%
Cc1ccc(C(C)CCN2CCN(Cc3cccc(F)c3)C(=O)C2)o1 (stereo not drawn) | inconclusive: 25%

4 compounds picked at random from those above:
Structure (SMILES) | inhibition
CC1CC(C)CN(c2nc3c(c(=O)n(C)c(=O)n3C)n2Cc2ccc(F)cc2)C1 (stereo not drawn) | inactive
COc1ccc(N2C(=O)C(=O)C(=C(O)c3ccccc3)C2c2ccc(O)c(OC)c2)cc1 (stereo not drawn) | inactive
CC(=O)c1c(C)nn(CC(=O)Nc2ccnn2C2CCCCC2)c1C | inactive
CCC1CN(Cc2ccc(CN(C)S(C)(=O)=O)o2)CCN1C(C)C (stereo not drawn) | inconclusive: 13%

Further entries follow.

Structure (SMILES) | inhibition
CCOC(=O)C1=C(C)NC2=C(C(=O)CCC2)C1c1cc(Br)c(CC)s1 (stereo not drawn) | inactive
COCCN[C@H]1[C@@H]2OC[C@@H](O2)[C@@H](NCc2cnc3ccccc3c2)[C@@H]1O | inconclusive: 22%
Cc1ccc(N2C(=O)CSC2c2ccccn2)cc1Cl (stereo not drawn) | inactive
CCOC(=O)c1c(C)n(C)c2ccc(OC(=O)c3ccc(OC)cc3)cc12 | inactive
CC1CCCC(NC(=O)COc2ccc3c(c2)C(=O)CC(C)(C)O3)C1C (stereo not drawn) | inconclusive: 10%
CC1(C)CC(=O)N(CC(=O)NC2CCCc3ccccc32)c2ccccc2S1 (stereo not drawn) | inconclusive: 17%
CC(C)(C)C(=O)Cn1c(=O)n(CCCC(=O)NCc2ccco2)c(=O)c2sccc21 | inconclusive: 12%
CCC1CCCCN1S(=O)(=O)c1ccc(C(=O)Nc2nnc(-c3ccc(OC)cc3)o2)cc1 (stereo not drawn) | inconclusive: 10%
CCc1ccccc1C(=O)N1C[C@@H](C(=O)O)C[C@@H](C(=O)NCc2ccccn2)C1 | inconclusive: 22%
CCOC(=O)C(CC)Sc1nc2c(c(=O)n1-c1ccc(Cl)cc1)SCC2 (stereo not drawn) | inconclusive: 25%
COc1cc([N+](=O)[O-])ccc1NC(=O)c1cc(Cl)ccc1Cl | inactive
O=C(O)c1ccc(/C=C2\NC(=O)N(Cc3ccc(Cl)cc3)C2=O)cc1 | inactive
CCOc1ccccc1C(=O)N1CCN=C1SCc1cccnc1 | inconclusive: 15%
COCCNC(=O)C[C@@H]1O[C@H](CNC(=O)c2ccc(N(C)C)cc2)[C@@H](O)[C@H]1O | inconclusive: 13%
COc1ccc(CN2C(=O)CO[C@H]3CN(Cc4ccc(C(=O)O)cc4)C[C@H]32)cc1 | inactive
O=C(O)c1ccc(C(=O)c2ccc3c(c2)C(=O)N(c2ccccc2O)C3=O)cc1 | inconclusive: 11%
COc1ccc(N2C(=O)NC(=O)/C(=C/c3cc(Br)c(O)c([N+](=O)[O-])c3)C2=O)cc1 | inactive
Cc1ccn(CCCn2cnc(-c3ccccc3)c2-c2cccnc2)n1 | inconclusive: 20%
O=C(Nc1nccs1)c1ccc(C(=O)Nc2nccs2)cc1 | inactive
O=C1CCCC2=C1C(c1cccnc1)c1c(nc(SCc3ccccc3)[nH]c1=O)N2 (stereo not drawn) | inactive

Structure (SMILES) | inhibition
CC1(C)CC(NC(=O)CC2CCCCC2)CC(C)(C)N1 | active: 34%
CCN(CC)c1ncccc1CNC(=O)C1CCCN(C)C1 (stereo not drawn) | inactive
Cc1cc(C)n(CC(C)NCCn2nc(C)c(Cl)c2C)n1 (stereo not drawn) | inconclusive: 13%
C=CCOC(=O)C1=C(C)N=C2SCCC(=O)N2C1c1ccccc1Cl (stereo not drawn) | inconclusive: 19%
CC(C)=C1C2C=CC1[C@@H]1C(=O)N(c3cccc(Cl)c3)C(=O)[C@H]21 | inactive
COc1ccc(C2=NN(CC(=O)NCCN(C)C)C(=O)CC2)cc1 | inconclusive: 13%
COc1ccc(S(=O)(=O)Nc2cccc([N+](=O)[O-])c2)cc1Br | inconclusive: 15%
CCOc1ccc2c(=O)c(Oc3ccccc3)c(C(F)(F)F)oc2c1 | inconclusive: 10%
CCOc1ccccc1NS(=O)(=O)NCc1ccccc1 | inconclusive: 14%
COc1ccc(C2CC(C(F)(F)F)n3nc(C(=O)N(C)Cc4ccccc4)c(Cl)c3N2)cc1 (stereo not drawn) | inactive
Oc1oc(-c2ccc(Cl)cc2)nc1C=Nc1cccc(C(F)(F)F)c1 | inconclusive: 25%
Cc1ccc(NC(=O)c2cc3ccccc3o2)c(C)c1 | inactive
O=C1OCCCN1CCn1ccnc1-c1ccc(-n2cccn2)cc1 | inconclusive: 14%
COC(=O)c1ccc2c(c1)nc(N1CCOC(C(F)(F)F)C1)n2C (stereo not drawn) | inconclusive: 16%
O=C(NC1CCCCCC1)C1CCCN1S(=O)(=O)c1cccc2nsnc12 (stereo not drawn) | inconclusive: 20%
Cc1ccc(Cl)cc1N1C(=O)C2CCCCC2C1=O (stereo not drawn) | inconclusive: 10%
CC(=O)Nc1ccc(S(=O)(=O)N[C@H]2CO[C@H]3[C@@H]2OC[C@@H]3n2nnnc2Oc2ccccc2)cc1 | inconclusive: 20%
Cc1cc(Cl)ccc1Nc1ncnc2ccccc12 | inactive
